# In PubChem BioAssay AID1671190 (National Center for Advancing Translational Sciences (NCATS), 2021):
# By UniProt entry, the sequences of proteins in these tests, tags left out.
# UniProt P18054, whole entry, looked up: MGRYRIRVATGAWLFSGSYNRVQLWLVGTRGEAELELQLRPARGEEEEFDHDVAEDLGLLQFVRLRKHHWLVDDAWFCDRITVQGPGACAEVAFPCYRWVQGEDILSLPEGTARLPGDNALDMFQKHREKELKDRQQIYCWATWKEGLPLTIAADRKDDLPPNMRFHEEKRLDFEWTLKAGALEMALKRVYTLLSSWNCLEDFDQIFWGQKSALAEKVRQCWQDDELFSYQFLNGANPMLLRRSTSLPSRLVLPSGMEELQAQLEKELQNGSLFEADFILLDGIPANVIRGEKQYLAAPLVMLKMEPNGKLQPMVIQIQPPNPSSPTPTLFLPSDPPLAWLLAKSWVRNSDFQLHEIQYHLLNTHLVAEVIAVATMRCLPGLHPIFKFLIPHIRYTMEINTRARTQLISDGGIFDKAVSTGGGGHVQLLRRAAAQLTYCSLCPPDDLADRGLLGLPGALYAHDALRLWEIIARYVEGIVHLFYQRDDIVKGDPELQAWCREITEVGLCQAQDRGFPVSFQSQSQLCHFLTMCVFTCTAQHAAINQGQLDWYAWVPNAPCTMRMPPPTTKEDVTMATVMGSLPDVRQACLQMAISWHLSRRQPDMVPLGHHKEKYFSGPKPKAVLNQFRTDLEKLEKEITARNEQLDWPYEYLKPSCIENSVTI
# Several values for one entry are separate records, joined by “and”; a condition that tells them apart may be missing. Equal entries are not always repeated. Hit rate of the full screen: of about 580,000 compounds, about 6,100 (1.1%) were called active. The shares of active, inactive and inconclusive entries below differ from those in the screen. Calls come from the whole dose curve; as a rule, active = well fitted inhibition curve with a large enough effect; inconclusive = small, poorly fitted or top-dose-only effect, or another doubt; inactive = no such curve, though single readings can be large or run the other way. Potencies of inconclusive entries are doubtful fits and often do not repeat.
# Target: Polyunsaturated fatty acid lipoxygenase ALOX12 (Homo sapiens) (UniProt P18054)
# Assay: Primary qHTS assay for inhibitors of human arachidonate 12S-lipoxygenase (ALOX12): Round 2
# Conditions: purified 12hLO, xylenol orange hydroperoxide absorbance; activity change, negative = inhibition: at 108 µM (top of the series) unless noted
# Procedure, shortened: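 Purified human 12hLO (150 nM final) in 25 mM Hepes, 0.01% Triton X-100, pH 7.0 was preincubated 15 min at room temperature with compound. Then 40 uM arachidonic acid was added, 30 min. Hydroperoxide was read by Fe-XO absorbance ratio 573/405 nm.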
# % is set by controls: 0 for no effect and ±100 for the full control effect; potency is the fitted concentration of half-maximal effect.
SMILES,Potency,"activity change, negative = inhibition"
Cc1cccc(OCC(=O)Nc2cccc(C(=O)OCc3cc(=O)n4c(C)csc4n3)c2)c1,"inconclusive: 56.2 µM [inhibitor, partial curve, poor fit]",–
O=C1CSC(c2ccc(Cl)cc2Cl)N1c1ccccn1 (stereo not given),inactive,–
NC(=O)C1(N2CCCCC2)CCN(Cc2ccc(F)cc2)CC1,inactive,–
N#Cc1c(N)n[nH]c1CCCNC(=O)c1cc(-c2ccco2)nc2ccccc12,active: 20 µM,–
O=c1ccc2cc(O)c(O)cc2o1,"inconclusive: 7.08 µM [inhibitor, full curve, poor fit]",–
Cc1ccccc1NC(=O)Nc1c(NC2CCCC2)c2ccccc2oc1=O,"inconclusive: 39.8 µM [inhibitor, partial curve, poor fit]",–
CCCCCCNC(=O)CC#N,"inconclusive: 50.1 µM [inhibitor, single point]",–
CCc1cccc(N2C(=O)CSC23C(=O)N(Cc2ccccc2F)c2ccccc23)c1 (stereo not given),inactive,–
O=[N+]([O-])c1ccc(N/N=C/c2cccc(O)c2O)c(S(=O)(=O)N2CCOCC2)c1,"inconclusive: 2 µM [inhibitor, full curve, poor fit]",–
O=C1NCCN1Cc1ccccc1F,inactive,–
COc1ccc(-n2c(N)c(C(=O)NCc3ccco3)sc2=S)cc1,inactive,–
Cc1ccc(N(CC(=O)Nc2ccc3c(c2)OCCO3)S(=O)(=O)c2c(C)n[nH]c2C)cc1,"inconclusive: 50.1 µM [inhibitor, partial curve, poor fit]",–
COc1c(C)cc(Br)cc1C(=O)NC(=S)Nc1ccc(Cl)c(C(=O)O)c1,"inconclusive: 14.1 µM [inhibitor, full curve, poor fit]",–
CC(=O)Nc1ccc2[nH]cc(C(C(=O)O)N3CCN(c4nc5c(cc4C#N)CCCC5)CC3)c2c1 (stereo not given),inactive,–
COc1ccc(NC(=O)CN2CCOCC2)cc1,"inconclusive: 0.562 µM [inhibitor, full curve, poor fit]",–
CCN1CCN(c2ccc(S(=O)(=O)N3CCCCC3)cc2NC(=O)Cc2ccccc2)CC1,"active: 15.8 µM and inconclusive: 39.8 µM [inhibitor, partial curve, poor fit]",–
OCCN1CCN(CC(O)COc2ccc(-c3ccccc3)cc2)CC1 (stereo not given),"inconclusive: 28.2 µM [inhibitor, partial curve, poor fit]",–
Cc1ncc(-c2ccc(C)c(S(=O)(=O)Nc3ccc(Cl)cc3)c2)o1,"inconclusive: 4.47 µM [inhibitor, full curve, poor fit]",–
CC(NC(=O)COC(=O)C1=NN(c2ccccc2)C(=O)CC1)c1ccccc1 (stereo not given),"inconclusive: 25.1 µM [inhibitor, partial curve, poor fit]",–
O=C(CN1CCN(S(=O)(=O)c2ccc(Br)cc2)CC1)c1ccc(O)c(O)c1,"inconclusive: 25.1 µM [inhibitor, partial curve]",–
O=C(Sc1nnc(-c2ccccc2)o1)N1c2ccccc2Sc2ccccc21,active: 10 µM,–
CCN(CC)c1ccc2cc(-c3nc(-c4ccccc4)no3)c(=O)oc2c1,inactive,–

SMILES,Potency,"activity change, negative = inhibition"
CCCCN(C)C(=O)c1cccc2c(C)c(C)[nH]c12,inactive,–
O=C(NCc1cccc(Cl)c1)C1CCN(c2nn3cc(-c4ccc(F)cc4)nc3s2)CC1,inactive,–
Cc1cscc1-c1ccc(C(=O)Nc2c(C)cccc2C)o1,"inconclusive: 44.7 µM [inhibitor, partial curve, poor fit]",–
CCCCNc1ncnc2c1cnn2-c1ccc(Cl)cc1,"inconclusive: 3.98 µM [inhibitor, partial curve, poor fit]",–
CSc1ccc(/C=C/C(=O)c2cccc(Br)c2)cc1,"inconclusive: 44.7 µM [inhibitor, partial curve]",–
CCc1ccccc1NC(=O)COC(=O)c1c(C)nsc1NC,"inconclusive: 141 µM [inhibitor, partial curve, poor fit]",–
COCCN1CCN(c2nc(C(=O)Nc3ccc(F)c(Cl)c3)cs2)C1=O,"inconclusive: 126 µM [inhibitor, partial curve, poor fit]",–
O=C(c1cnccn1)N1CCC(Oc2cccnc2)C1 (stereo not given),inactive,–
Cn1nc(C(=O)Nc2ccnn2Cc2ccc(Br)cc2)c2ccccc2c1=O,"inconclusive: 112 µM [inhibitor, partial curve, poor fit]",–
S=C(Nc1cccc(Cl)c1)Nc1ccc2c(c1)OCCO2,"inconclusive: 31.6 µM [inhibitor, partial curve]",–
CCCCNC(=O)c1cnn2c(C)c(Cc3c(C)cc(C)cc3C)c(C)nc12,"inconclusive: 112 µM [inhibitor, partial curve, poor fit]",–
COc1ccc(-n2nnnc2SCc2cc(=O)oc3cc(O)ccc23)cc1,"inconclusive: 35.5 µM [inhibitor, partial curve, poor fit]",–
Cc1ccccc1OCc1ccc(-c2nc(C#N)c(N3CCCCC3)o2)o1,"inconclusive: 50.1 µM [inhibitor, partial curve, poor fit]",–
Brc1ccccc1OCCN1CCOCC1,"inconclusive: 112 µM [inhibitor, single point]",–
Cc1ccc(N(CC(=O)Nc2cc(Cl)ccc2Oc2ccccc2)S(C)(=O)=O)cc1C,inactive,–
CCOc1cc(/C=N/NC(=O)c2ccc(CN3CCOCC3)cc2)ccc1OC,"inconclusive: 0.1 µM [inhibitor, full curve, poor fit]",–
COC(=O)C1CCN(c2nc3ccccc3nc2C(C#N)C(=O)OCC(C)C)CC1 (stereo not given),inactive,–
CCOC(=O)c1cc2c(=O)n3ccccc3nc2n(Cc2ccco2)c1=NC(=O)c1ccc(OC)cc1,inactive,–
O=C(NCc1ccccc1)C(C(=O)c1ccc(F)cc1)n1ccccc1=O (stereo not given),inactive,–
CC(C)(C)NC(=O)C(c1ccccc1F)N(Cc1ccco1)C(=O)c1csnn1 (stereo not given),"inconclusive: 39.8 µM [inhibitor, partial curve, poor fit]",–
CCN1C(=O)C(CC(=O)Nc2ccc(F)cc2)N(CCc2ccc(OC)cc2)C1=S (stereo not given),"inconclusive: 112 µM [inhibitor, partial curve, poor fit]",–
CCOC(=O)[C@H]1[C@H]2COc3ccccc3[C@@H]2N2C(=O)c3cc(OC)c(OC)cc3NC(=O)[C@@]12C,"inconclusive: 112 µM [inhibitor, single point]",–

# Exported with tabs: part of the list above.
SMILES	Potency	activity change, negative = inhibition
CCCCNc1ncnc2c1cnn2-c1ccc(Cl)cc1	inconclusive: 3.98 µM [inhibitor, partial curve, poor fit]	–
Cc1ccc(N(CC(=O)Nc2cc(Cl)ccc2Oc2ccccc2)S(C)(=O)=O)cc1C	inactive	–

# (continued)

SMILES,Potency,"activity change, negative = inhibition"
O=C(NC(C1CC1)C1CC1)c1n[nH]c(=O)c2ccccc12,"inconclusive: 79.4 µM [inhibitor, partial curve, poor fit]",–
CCC(C)(C)c1ccc(OCCCC[n+]2ccc(C)cc2)c(C(C)(C)CC)c1,"inconclusive: 44.7 µM [inhibitor, partial curve, poor fit]",–
Fc1cccc(NC(=S)NNc2ccccc2)c1,"inconclusive: 44.7 µM [inhibitor, partial curve, poor fit]",–
Brc1cc2c(cc1C1Nc3ccccc3C3C=CCC31)OCO2 (stereo not given),"inconclusive: 89.1 µM [inhibitor, partial curve, poor fit]",–
c1ccc(-n2nnnc2-c2cnc(-c3ccncc3)nc2-c2cccs2)cc1,–,inconclusive: -51% [inhibitor]
CCOc1ccc(S(=O)(=O)N2CCOCC2)cc1NC(=O)c1oc2ccccc2c1C,"inconclusive: 50.1 µM [inhibitor, single point]",–
CCCc1c(-c2ccc(Cl)cc2)ncn1CCc1ccccc1OC,"inconclusive: 44.7 µM [inhibitor, partial curve, poor fit]",–
COc1ccc(OCCSc2nnc3sc4ccccc4n23)cc1,"inconclusive: 63.1 µM [inhibitor, partial curve, poor fit]",–
CSCc1c(C(=O)Nc2ccc3c(c2)OCO3)oc2ccccc12,"inconclusive: 50.1 µM [inhibitor, partial curve, poor fit]",–
Cc1ccc(NC(=O)CNC(=O)c2ccco2)cc1,–,inconclusive: -41.2% [inhibitor]
CCC1(C)NC(=O)N(NC(=O)c2nn(C)c(=O)c3ccccc23)C1=O (stereo not given),"inconclusive: 100 µM [inhibitor, single point]",–
CCOc1ccc(S(=O)(=O)N2CCN(C(=O)c3ccc(Cl)c(S(=O)(=O)N4CCOCC4)c3)CC2)cc1,inactive,–
COc1ccc(-c2nnc3ccc(SCC(=O)NCc4ccco4)nn23)cc1,"inconclusive: 44.7 µM [inhibitor, partial curve, poor fit]",–
Oc1cccc(C(O)CNCc2ccc(OCc3ccc(Cl)cc3Cl)cc2)c1 (stereo not given),"inconclusive: 56.2 µM [inhibitor, partial curve, poor fit]",–
COc1ccc(NC(=O)C2CCN(C3=NS(=O)(=O)C(c4ccc(C)c(C)c4)=C3C)CC2)cc1OC,"inconclusive: 112 µM [inhibitor, partial curve, poor fit]",–
COc1ccc(S(=O)(=O)N2CCc3ccccc32)cc1NC(C)=O,inactive,–
COc1ccc(C(=O)CSc2nnc(CNC(=O)c3ccc(OC)c(OC)c3)n2C)cc1,"inconclusive: 50.1 µM [inhibitor, single point]",–
Nc1nc(N2CCOCC2)nc2c1C(C(=O)Nc1ccc(Cl)c(Cl)c1)CC(=O)N2 (stereo not given),"inconclusive: 44.7 µM [inhibitor, partial curve, poor fit]",–
Cc1nn(C)c(C)c1NS(=O)(=O)c1ccc(N2CCCC2=O)cc1,inactive,–
Cc1ccc(C(=O)CCC(=O)Nc2ncccc2C)cc1,"inconclusive: 25.1 µM [inhibitor, partial curve, poor fit]",–
COCC1CN(C)CC12CCN(C(=O)CC1=CCCCC1)CC2 (stereo not given),inactive,–
